Results published in paper PMC4721547, “Cyclophilin40 isomerase activity is regulated by a temperature-dependent allosteric interaction with Hsp90” (Bioscience Reports, 2015).
These are yes or no findings as the source states them, for the method shown. Some binding calls cover weakened binding; strength is not graded here.

By UniProt entry, the sequences of proteins in these tests, tags left out.
UniProt Q08752: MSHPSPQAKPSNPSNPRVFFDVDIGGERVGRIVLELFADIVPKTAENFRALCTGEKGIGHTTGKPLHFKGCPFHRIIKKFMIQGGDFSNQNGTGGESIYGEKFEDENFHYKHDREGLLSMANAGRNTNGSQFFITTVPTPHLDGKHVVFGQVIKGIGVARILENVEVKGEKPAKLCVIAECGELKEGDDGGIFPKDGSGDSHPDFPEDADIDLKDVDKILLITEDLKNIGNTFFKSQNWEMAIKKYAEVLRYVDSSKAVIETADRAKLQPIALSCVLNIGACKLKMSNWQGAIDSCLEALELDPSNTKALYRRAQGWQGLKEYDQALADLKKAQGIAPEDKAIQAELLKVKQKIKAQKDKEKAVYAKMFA

How the values were obtained:
[1] = biological target: Cyclophilin 40 (human; pDEST14-6H-TEV-hCyp40) (human) (UniProt Q08752); test: thermal denaturation fluorescence; 2 uM Cyp40 apo, with 250 uM SRMEEVD, with 4 uM CsA, or with both; 50 mM Hepes pH 8, 100 mM sodium chloride, 1 mM DTT; 25-70 °C; both purified
[2] = biological target: Cyclophilin 40 (human; pDEST14-6H-TEV-hCyp40) (human) (UniProt Q08752); test: intrinsic tryptophan fluorescence; 1 uM Cyp40 apo and after addition of 250 uM SRMEEVD; 15-45 °C at 5 °C intervals; 50 mM Hepes pH 8, 100 mM sodium chloride, 1 mM DTT; excitation 295 nm, emission 310-400 nm; both purified

B1: SRMEEVD peptide (Hsp90 wild-type C-terminal peptide) (peptide)
peptide: SRMEEVD
notes: also called Hsp90 peptide; Hsp90 wt
B1 was tested, and the binding [1] was “binds” and the binding [2] was “binds”.
